# Assay results: EP1153612A1, “ANTICANCER AGENT POTENTIATORS” (Tsuruo, Takashi, priority 1999, dated 2000)
# Some results were stated once for a whole list of compounds, not compound by compound. Where a SMILES comes first, the peptide text is derived from it. [ ]: non-standard residue; d: D form. The star is where a group is joined. Nva = CCC[C@H](N)C(=O)O; Cbz = O=C(OCc1ccccc1)*
# How the values were obtained:
# proteasome = biological target: T1, proteasome (Homo sapiens, UniProt P28074); test: Proteasome activity in nuclear extract solution of HT29 cells with fluorescent peptide substrate; assay type: biochemical; conditions: Z-LLL-MCA as the substrate; PSI, MG115, MG132 2.5 µm; E64 5 and 10 µm; ZLLal 2.5 and 5 µm; extracts of control, glucose starvation and hypoxia cells; FIG. 10
# T1 construct: endogenous in cells; host or cells: HT29 human colon adenocarcinoma cells, unpurified nuclear extract (control, glucose-starved or hypoxic cells)
# T1 sequence (P28074 60-263): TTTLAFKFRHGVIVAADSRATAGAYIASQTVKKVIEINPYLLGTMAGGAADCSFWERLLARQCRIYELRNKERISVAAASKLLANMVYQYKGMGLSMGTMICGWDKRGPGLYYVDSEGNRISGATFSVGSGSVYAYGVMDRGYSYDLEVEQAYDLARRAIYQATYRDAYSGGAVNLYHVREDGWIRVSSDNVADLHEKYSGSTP
# calpain = conditions: general statement on selectivity as proteasome inhibiting agent; cited from earlier work
smiles,measurement,setting,value
"CCC[C@@H](C=O)NC(=O)[C@H](CC(C)C)NC(=O)[C@H](CC(C)C)NC(=O)OCc1ccccc1 [MG115, carbobenzoxy-L-Leucyl-L-Leucyl-L-Norvalinal] (Cbz-Leu-Leu-[Nva]-aldehyde)",suppression of proteasome activity in the nuclear extract solution,proteasome,suppress almost perfectly
same,inhibitory activity on calpain,calpain,show inhibitory activity on other enzymes such as calpain
